Data: US20190376039A1, “CELLS WITH IMPROVED INWARD RECTIFIER CURRENT” (priority 2018, published 2019)

System: IK1-induced ventricular-like SC-CMs
Assay: Action potentials under current clamp in paced IK1-induced SC-CMs (di-LQTS model)
Description: SC-CMs were singularized and plated before cellular electrophysiology experiments on 12-mm poly-d-lysine/laminin or SyntheMax pre-coated coverslips. IK1 was induced by treating singularized cells with doxycycline (2 μM) (Thermo Fisher Scientific) for 48-72 hours prior to cellular electrophysiology analysis. Borosilicate glass pipettes (3-4 MΩ) were used (Model P-97; Sutter Instruments, Novato, Calif.). Whole cell capacitance was calculated by using the time domain technique (20).
AP were measured under current clamp at 32° C. using an Axopatch 200B amplifier and pCLAMP 10 (Molecular Devices, Sunnyvale, Calif.). […] The pipette solution comprised 150 mM K-gluconate, 5 mM EGTA, 10 mM HEPES, and 5 mM MgATP (pH 7.2, KOH). Myocytes were paced at 0.5, 1, 2, and 3 Hz with a depolarizing pulse from a programmable digital stimulator (D55000; WPI, Sarasota, Fla.). AP properties including AP amplitude; resting membrane potential; AP duration at 10% (APD10), 50% (APD50), 70% (APD70), and 90% (APD90) of repolarization; and maximum upstroke velocity (dV/dtmax) were measured (pCLAMP 10; Matlab 6.0, Natick, Mass.). […] Myocytes were paced at 0.5 and 1 Hz. […] AP properties identified above were re-measured.

SMILES: Cc1cccc(CCN2CCC(C(=O)c3ccc(NS(C)(=O)=O)cc3)CC2)n1 [E4031]
- cells in which EADs occurred (100 nM): 2/2
- induction of early afterdepolarizations (EADs) (0.5 Hz pacing, E4031 20 nM and 100 nM, ATX-II 30 nM): induced EADs
- dV/dTmax (0.5 Hz pacing, E4031 20 nM, ATX-II 30 nM, mean SE): 207.5 ± 26.11 V/s
- effect on dV/dt max (drug vs baseline, E4031, ATX-II 30 nM): not affected
